# Some entries share one result that the patent states for a list of compounds. For at least one compound, name, drawing or mass did not settle the structure.
# Tested on: mouse lung epithelial cells (L929)
# Test: XTT cytotoxicity assay, L929 cells
# Format: cell-based
# Details: concentration of 0.6 mM
smiles,measurement,value
"OCl [OCl^−, reference compound]",viability,less than 50%

# Reference: US7893109B2, “N,N-dihalogenated amino acids and derivatives” (Novabay Pharmaceuticals, Inc., priority 2003, dated 2011)
